# Laboratory results reported in PubChem BioAssay AID493014 (National Center for Advancing Translational Sciences (NCATS), 2011).
# Some of the results follow. These are further read-outs of the screen, such as a control signal, another cell line or another target. No call is given for them. Most of these compounds were active or inconclusive in the main read-out, so they are no random draw. Words in brackets tell the shape of the fitted curve; partial curves, single points and poor fits give uncertain potencies.
# Experiment: qHTS Assay to Find Inhibitors of Chronic Active B-Cell Receptor Signaling
# Conditions: ABC-DLBCL IkBa-CBG/CBR reporter, luminescence ratio (green luciferase fused to IkBa over red control in TMD8 lymphoma cells), 4 h
# Outline: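 TMD8 ABC-DLBCL cells carrying doxycycline-inducible green luciferase fused to IkappaBalpha plus unfused red luciferase were exposed to compounds (up to 46 uM) for 4 hrs at 37C. Activity came from the overlap-corrected green/red luminescence ratio.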
# [1] = measured here: CBR red luminescence, cell number
# [2] = measured here: IkBa-CBG green luminescence
Structure (SMILES),AC50 [1],AC50 [2]
CCOC(=O)c1c(C)[nH]c(C(=O)OCC(=O)c2ccc(OC)cc2OC)c1C,"25.9 µM [rising, partial curve, poor fit]",
Cc1ccc(OCC(=O)Nc2cccc(S(=O)(=O)NC3=NCCCCC3)c2)cc1C,"17.8 µM [falling, partial curve, poor fit]",
CC(C)(C)c1ccc(C(=O)NCCOc2ccccc2)cc1,"11.2 µM [rising, partial curve, poor fit]",
CCN(CC)C(=S)SCC(=O)Nc1nc(-c2ccccc2)c(-c2ccccc2)o1,"4.61 µM [falling, partial curve, poor fit]",
COc1cc(OC)cc(C2=NC3(CCC(C)CC3)NC2=S)c1 (centres undefined),,"14.1 µM [rising, partial curve, poor fit]"
COc1ccc2c(CC(=O)OCC(=O)Nc3ccc(C)cc3)coc2c1,"5.17 µM [rising, single point]",
CCC(=O)Nc1ccc(-c2nnc(SCc3ccc(C(=O)Nc4nccs4)cc3)n2CC)cc1,"0.501 µM [falling, full curve, poor fit]",
Cc1ccc(NC2CC(=O)N(c3ccc(N4CCCCC4)cc3)C2=O)cc1 (centres undefined),"25.9 µM [falling, partial curve, poor fit]",
Cc1oc2cc3c(C(=O)N4CCCCC4)c(C)oc3cc2c1C(=O)N1CCCCC1,"11.2 µM [falling, partial curve]",
COc1ccc(NC(=O)c2nc[nH]c2C(=O)N[C@@H](CC(C)C)C(=O)OC(C)(C)C)cc1,"20 µM [rising, single point]",
O=C(NN=C1CCN(Cc2ccccc2)CC1)c1ccccc1,"9.2 µM [falling, partial curve]",
CC(C)(C)c1cc(=O)n2c(nc3ccccc32)[nH]1,"11.2 µM [falling, single point]",
O=C(Nc1ccccc1)C1=C[C@H](c2ccccc2)C[C@H](OCc2ccc(CO)cc2)O1,"25.1 µM [falling, single point]",
COc1ccc(Cn2ccnc2)cc1[N+](=O)[O-],"29.1 µM [rising, single point]",
COc1ccc(CCNC(=O)CSc2nnc(-c3ccc(F)cc3)o2)cc1OC,"8.91 µM [rising, partial curve, poor fit]",
COc1ccc(C(=O)O/N=C(\N)c2ccccc2)cc1OC,"3.98 µM [falling, full curve, poor fit]",
O=C(NCCCN1CCOCC1)c1ccc2c(c1)N(Cc1ccc(Cl)cc1)C(=O)c1ccccc1S2=O (centres undefined),"5.01 µM [falling, partial curve]",
S=C(NCCc1ccccc1)N/N=C/c1c(Cl)cccc1Cl,"20.6 µM [rising, single point]",
N#CCCn1cc(C=C(C#N)C#N)c(-c2ccc(Cl)cc2)n1,"15.8 µM [falling, single point]",
CCN(CC1COc2ccccc2O1)C(=O)c1ccc(Cl)c(S(=O)(=O)N2CC(C)OC(C)C2)c1 (centres undefined),"25.9 µM [falling, partial curve, poor fit]",

Structure (SMILES),AC50 [1],AC50 [2]
O=C(OCN1C(=O)c2ccccc2C1=O)c1cccc(S(=O)(=O)N2CCOCC2)c1,"1.26 µM [rising, partial curve, poor fit]",
COCCN1C(=O)c2ccccc2C(C(=O)Nc2ccc3c(c2)OCCO3)C1c1ccc(F)cc1 (centres undefined),"0.631 µM [rising, full curve]",
COc1ccc2c(c1)[C@H]1[C@H](CO2)[C@H](c2ccccc2)[C@]2(C)C(=O)Nc3ccc(F)cc3C(=O)N12,"6.51 µM [falling, partial curve]",
CCOC(=O)C1=NN(c2ccccc2)C(=O)/C1=C\c1ccc(N(C)C)cc1,"32.6 µM [falling, single point]",
NS(=O)(=O)c1ccc(NC(=O)c2ccc3c(c2)OCO3)cc1,"5.01 µM [falling, full curve, poor fit]",
CCN(CCCNC(=O)CNC(=O)Cn1cnc2ccccc2c1=O)c1ccccc1,"6.51 µM [rising, single point]",
O=C(Nc1nc2ccc(Cl)cc2s1)[C@@H]1CCCN1C(=O)c1cccs1,"20.6 µM [falling, single point]","16.4 µM [rising, partial curve, poor fit]"
O=C(NCC1CCCO1)c1cc(-c2ccccc2F)no1 (centres undefined),"11.2 µM [falling, partial curve]",
CCOC(=O)CSc1c(-c2cccs2)[nH]c2ccccc12,"29.1 µM [falling, single point]",
CCC1CCCCN1C(=O)COC(=O)c1cc2ccccc2cc1O (centres undefined),"35.5 µM [falling, single point]",
CC(C)C[C@H](NC(=O)c1nc[nH]c1C(=O)NCc1ccc(CNC(=O)OC(C)(C)C)cc1)C(=O)OC(C)(C)C,"2 µM [rising, full curve, poor fit]",
COc1cc(OC)cc(-c2cc3ccc(F)cc3cn2)c1,"23.1 µM [falling, single point]",
Cc1cc2c3nonc3ccc2n1-c1ccccc1,"6.31 µM [rising, partial curve, poor fit]",
COc1ccc(OC)c(NC(=O)CSC2=C(C#N)C(c3ccco3)C3=C(CCCC3=O)N2)c1 (centres undefined),"14.1 µM [falling, partial curve]",
O=C(COC(=O)Cc1n[nH]c(=O)c2ccccc12)Nc1ccc(Cl)cn1,"2.06 µM [falling, partial curve, poor fit]",
COC(=O)c1c(NC(=O)/C=C/C(=O)O)sc(Cc2ccccc2)c1C,"14.6 µM [falling, partial curve, poor fit]",
CC(C)Sc1nc(N2CCOCC2)c2c(c1C#N)CC(C)(C)SC2,"0.562 µM [rising, full curve, poor fit]",
COc1ccc([N+](=O)[O-])cc1C1NN=C(c2cccc3ccccc23)S1 (centres undefined),"10.3 µM [rising, partial curve]",
O=C(NCCc1ccccc1)C1CC1,"0.794 µM [rising, full curve, poor fit]",
CCOC(=O)c1c(C)n(C)c2ccc(OC)c(NC(=O)CN3CCC4(CC3)OCCO4)c12,"11.2 µM [rising, partial curve]","11.2 µM [falling, partial curve]"

Structure (SMILES),AC50 [1],AC50 [2]
Cc1noc(C)c1C(=O)OCC(=O)N(C)C1CCS(=O)(=O)C1 (centres undefined),"8.91 µM [falling, partial curve, poor fit]",
Cc1oc(-c2cccc(Br)c2)[n+]([O-])c1C,"20 µM [falling, single point]",
COc1ccc(N/N=C(/C)c2cnnc(-c3ccccc3)n2)cc1,"25.9 µM [rising, single point]",
N#CCc1ccc(NC(=O)Nc2cccc3ccccc23)cc1,"20 µM [falling, partial curve, poor fit]",
C/C(CC(=O)Nc1ccc(Cl)c(C(F)(F)F)c1)=N\NC(=O)c1cccc(O)c1,"3.26 µM [falling, full curve]",
Cc1cccc(-n2ncc3c(N)ncnc32)c1,"20 µM [falling, partial curve]",
CCOc1ccc(S(=O)(=O)N2CCCCC2)cc1NC(=O)C1CSC2(C)CCC(=O)N12 (centres undefined),"4.11 µM [rising, partial curve]",
COc1cccc(Nc2nnc(SCC(=O)N3CCOCC3)s2)c1,"8.91 µM [falling, partial curve]",
COc1cc(/C=N/NC(=O)Nc2ccccc2)ccc1OCCOc1ccccc1C,"4.61 µM [rising, partial curve]",
CN(C)S(=O)(=O)c1ccc(C(=O)OCC(=O)Nc2cccnc2Cl)cc1,"20 µM [rising, partial curve, poor fit]",
Cc1ccc(SC(c2ccc(C)cc2)C(Cn2cncn2)C(=O)c2ccccc2)cc1 (centres undefined),"3.66 µM [falling, single point]",
C=CCC[C@H](Cc1ccc(F)cc1)C(=O)OC[C@H](Cc1c[nH]c2ccccc12)NC(=O)[C@@H](CC=C)CC(=O)N(CCO)Cc1ccccc1,"11.6 µM [falling, partial curve, poor fit]",
CC1(C)S[C@@H]2[C@H](NC(=O)C(C(=O)O)c3ccccc3)C(=O)N2[C@H]1C(=O)O (some centres undefined),"0.00517 µM [rising, full curve, poor fit]",
CCOC(=O)c1sc(NC(=O)c2ccc(C)s2)cc1C,"0.141 µM [falling, full curve, poor fit]",
CCn1c(SCC(=O)Nc2nc(-c3ccc(C)cc3)cs2)nnc1-c1ccccc1,"6.51 µM [rising, single point]",
O=C(CN1C(=O)NC2(CCCC2)C1=O)Nc1cccc(C(F)(F)F)c1,"15.8 µM [rising, single point]",
CC(=O)Oc1ccc(-c2nc(-c3cccnc3)no2)cc1,"4.11 µM [rising, single point]","7.31 µM [falling, partial curve, poor fit]"
COc1cccc2sc(N3CCN(c4nc5ccccc5s4)CC3)nc12,"7.94 µM [rising, partial curve, poor fit]",
Cc1ccc(C(C)C)c(OCC(=O)Nn2c(C)nc3ccccc3c2=O)c1,"20.6 µM [falling, single point]","32.6 µM [rising, partial curve, poor fit]"
c1ccc(CN2CCC(Nc3nc(-c4ccccc4)nc4ccccc34)CC2)cc1,"25.9 µM [falling, partial curve]",

# Laid out differently: results already given.
Structure (SMILES)	AC50 [1]	AC50 [2]
Cc1noc(C)c1C(=O)OCC(=O)N(C)C1CCS(=O)(=O)C1 (centres undefined)	8.91 µM [falling, partial curve, poor fit]	
Cc1oc(-c2cccc(Br)c2)[n+]([O-])c1C	20 µM [falling, single point]	
COc1ccc(N/N=C(/C)c2cnnc(-c3ccccc3)n2)cc1	25.9 µM [rising, single point]	
N#CCc1ccc(NC(=O)Nc2cccc3ccccc23)cc1	20 µM [falling, partial curve, poor fit]	
C/C(CC(=O)Nc1ccc(Cl)c(C(F)(F)F)c1)=N\NC(=O)c1cccc(O)c1	3.26 µM [falling, full curve]	
Cc1cccc(-n2ncc3c(N)ncnc32)c1	20 µM [falling, partial curve]	
CCOc1ccc(S(=O)(=O)N2CCCCC2)cc1NC(=O)C1CSC2(C)CCC(=O)N12 (centres undefined)	4.11 µM [rising, partial curve]	
COc1cccc(Nc2nnc(SCC(=O)N3CCOCC3)s2)c1	8.91 µM [falling, partial curve]	
COc1cc(/C=N/NC(=O)Nc2ccccc2)ccc1OCCOc1ccccc1C	4.61 µM [rising, partial curve]	
CN(C)S(=O)(=O)c1ccc(C(=O)OCC(=O)Nc2cccnc2Cl)cc1	20 µM [rising, partial curve, poor fit]	
Cc1ccc(SC(c2ccc(C)cc2)C(Cn2cncn2)C(=O)c2ccccc2)cc1 (centres undefined)	3.66 µM [falling, single point]	
C=CCC[C@H](Cc1ccc(F)cc1)C(=O)OC[C@H](Cc1c[nH]c2ccccc12)NC(=O)[C@@H](CC=C)CC(=O)N(CCO)Cc1ccccc1	11.6 µM [falling, partial curve, poor fit]	
CC1(C)S[C@@H]2[C@H](NC(=O)C(C(=O)O)c3ccccc3)C(=O)N2[C@H]1C(=O)O (some centres undefined)	0.00517 µM [rising, full curve, poor fit]	
CCOC(=O)c1sc(NC(=O)c2ccc(C)s2)cc1C	0.141 µM [falling, full curve, poor fit]	
CCn1c(SCC(=O)Nc2nc(-c3ccc(C)cc3)cs2)nnc1-c1ccccc1	6.51 µM [rising, single point]	
O=C(CN1C(=O)NC2(CCCC2)C1=O)Nc1cccc(C(F)(F)F)c1	15.8 µM [rising, single point]	
CC(=O)Oc1ccc(-c2nc(-c3cccnc3)no2)cc1	4.11 µM [rising, single point]	7.31 µM [falling, partial curve, poor fit]
COc1cccc2sc(N3CCN(c4nc5ccccc5s4)CC3)nc12	7.94 µM [rising, partial curve, poor fit]	
